The text below walks through data of publication PMC12696100.

Chains of the proteins cited; added tags and fusions are not shown.
UniProt O75165: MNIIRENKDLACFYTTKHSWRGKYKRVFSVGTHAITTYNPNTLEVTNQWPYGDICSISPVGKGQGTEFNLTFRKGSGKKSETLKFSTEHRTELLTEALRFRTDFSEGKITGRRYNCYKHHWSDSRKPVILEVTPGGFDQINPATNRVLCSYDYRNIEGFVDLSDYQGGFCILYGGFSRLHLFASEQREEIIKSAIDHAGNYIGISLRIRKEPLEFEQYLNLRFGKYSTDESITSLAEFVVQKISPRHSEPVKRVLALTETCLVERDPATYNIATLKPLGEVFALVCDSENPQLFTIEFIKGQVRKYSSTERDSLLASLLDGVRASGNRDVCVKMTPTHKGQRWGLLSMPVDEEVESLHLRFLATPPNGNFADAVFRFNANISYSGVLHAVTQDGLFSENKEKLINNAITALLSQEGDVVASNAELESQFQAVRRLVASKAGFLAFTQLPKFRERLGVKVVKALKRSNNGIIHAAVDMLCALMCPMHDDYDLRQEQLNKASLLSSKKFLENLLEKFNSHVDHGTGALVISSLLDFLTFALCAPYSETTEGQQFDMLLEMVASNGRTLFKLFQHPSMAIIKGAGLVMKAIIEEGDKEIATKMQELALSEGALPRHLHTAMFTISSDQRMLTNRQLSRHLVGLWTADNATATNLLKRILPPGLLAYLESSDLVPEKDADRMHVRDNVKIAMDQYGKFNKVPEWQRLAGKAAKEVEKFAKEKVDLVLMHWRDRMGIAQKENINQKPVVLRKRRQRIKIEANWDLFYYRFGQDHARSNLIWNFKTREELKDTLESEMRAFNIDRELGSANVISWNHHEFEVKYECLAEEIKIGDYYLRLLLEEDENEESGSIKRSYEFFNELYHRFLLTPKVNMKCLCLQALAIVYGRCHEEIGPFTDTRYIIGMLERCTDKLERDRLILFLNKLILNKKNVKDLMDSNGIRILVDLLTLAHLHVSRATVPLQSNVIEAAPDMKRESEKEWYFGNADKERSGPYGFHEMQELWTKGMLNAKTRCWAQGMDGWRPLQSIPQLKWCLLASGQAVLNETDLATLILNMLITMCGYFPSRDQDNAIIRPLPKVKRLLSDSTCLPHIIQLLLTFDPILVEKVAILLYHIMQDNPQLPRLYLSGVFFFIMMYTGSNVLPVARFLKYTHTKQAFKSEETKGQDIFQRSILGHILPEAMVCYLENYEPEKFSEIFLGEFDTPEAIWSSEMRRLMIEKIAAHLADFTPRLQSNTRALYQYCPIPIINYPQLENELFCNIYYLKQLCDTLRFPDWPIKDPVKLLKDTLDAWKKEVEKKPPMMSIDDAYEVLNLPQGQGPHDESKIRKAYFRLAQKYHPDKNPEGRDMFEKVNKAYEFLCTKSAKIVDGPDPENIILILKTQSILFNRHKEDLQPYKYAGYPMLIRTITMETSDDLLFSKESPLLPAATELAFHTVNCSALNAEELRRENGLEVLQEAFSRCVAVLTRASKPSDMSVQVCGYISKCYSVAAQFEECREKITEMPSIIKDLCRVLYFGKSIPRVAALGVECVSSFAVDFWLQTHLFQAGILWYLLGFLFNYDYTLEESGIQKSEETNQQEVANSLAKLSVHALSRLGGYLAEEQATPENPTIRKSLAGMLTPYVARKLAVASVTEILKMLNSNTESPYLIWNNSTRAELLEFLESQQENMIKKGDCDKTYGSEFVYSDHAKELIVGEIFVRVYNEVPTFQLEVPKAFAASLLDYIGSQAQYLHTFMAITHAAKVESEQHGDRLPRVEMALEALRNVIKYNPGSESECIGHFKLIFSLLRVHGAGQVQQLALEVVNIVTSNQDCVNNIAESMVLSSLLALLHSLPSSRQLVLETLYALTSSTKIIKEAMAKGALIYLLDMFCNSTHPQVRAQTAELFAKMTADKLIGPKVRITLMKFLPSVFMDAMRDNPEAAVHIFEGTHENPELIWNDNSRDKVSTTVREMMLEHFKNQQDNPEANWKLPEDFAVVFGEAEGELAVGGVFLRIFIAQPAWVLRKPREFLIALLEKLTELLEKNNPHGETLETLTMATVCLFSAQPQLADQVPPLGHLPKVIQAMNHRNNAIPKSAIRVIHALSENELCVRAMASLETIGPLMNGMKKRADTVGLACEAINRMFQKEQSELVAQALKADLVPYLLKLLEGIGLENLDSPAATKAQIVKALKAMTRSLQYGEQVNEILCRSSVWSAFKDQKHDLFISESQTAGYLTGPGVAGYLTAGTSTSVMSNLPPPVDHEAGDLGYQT
UniProt O75925: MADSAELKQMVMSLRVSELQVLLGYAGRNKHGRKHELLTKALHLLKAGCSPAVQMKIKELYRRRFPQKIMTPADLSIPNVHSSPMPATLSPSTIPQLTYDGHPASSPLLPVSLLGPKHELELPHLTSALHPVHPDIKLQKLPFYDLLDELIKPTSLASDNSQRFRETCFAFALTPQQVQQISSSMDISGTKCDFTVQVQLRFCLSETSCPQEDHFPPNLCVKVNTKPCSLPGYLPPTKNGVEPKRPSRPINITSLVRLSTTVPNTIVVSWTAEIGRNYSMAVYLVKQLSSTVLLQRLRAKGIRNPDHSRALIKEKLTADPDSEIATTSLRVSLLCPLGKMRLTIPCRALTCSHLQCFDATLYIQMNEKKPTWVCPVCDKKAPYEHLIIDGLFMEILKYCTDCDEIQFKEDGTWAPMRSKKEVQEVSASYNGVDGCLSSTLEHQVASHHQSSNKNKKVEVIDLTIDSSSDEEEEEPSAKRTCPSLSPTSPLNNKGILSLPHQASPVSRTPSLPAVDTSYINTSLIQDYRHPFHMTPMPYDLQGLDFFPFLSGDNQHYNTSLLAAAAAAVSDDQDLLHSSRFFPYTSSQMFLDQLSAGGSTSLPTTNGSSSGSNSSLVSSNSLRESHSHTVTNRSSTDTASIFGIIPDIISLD
UniProt Q9BXW9: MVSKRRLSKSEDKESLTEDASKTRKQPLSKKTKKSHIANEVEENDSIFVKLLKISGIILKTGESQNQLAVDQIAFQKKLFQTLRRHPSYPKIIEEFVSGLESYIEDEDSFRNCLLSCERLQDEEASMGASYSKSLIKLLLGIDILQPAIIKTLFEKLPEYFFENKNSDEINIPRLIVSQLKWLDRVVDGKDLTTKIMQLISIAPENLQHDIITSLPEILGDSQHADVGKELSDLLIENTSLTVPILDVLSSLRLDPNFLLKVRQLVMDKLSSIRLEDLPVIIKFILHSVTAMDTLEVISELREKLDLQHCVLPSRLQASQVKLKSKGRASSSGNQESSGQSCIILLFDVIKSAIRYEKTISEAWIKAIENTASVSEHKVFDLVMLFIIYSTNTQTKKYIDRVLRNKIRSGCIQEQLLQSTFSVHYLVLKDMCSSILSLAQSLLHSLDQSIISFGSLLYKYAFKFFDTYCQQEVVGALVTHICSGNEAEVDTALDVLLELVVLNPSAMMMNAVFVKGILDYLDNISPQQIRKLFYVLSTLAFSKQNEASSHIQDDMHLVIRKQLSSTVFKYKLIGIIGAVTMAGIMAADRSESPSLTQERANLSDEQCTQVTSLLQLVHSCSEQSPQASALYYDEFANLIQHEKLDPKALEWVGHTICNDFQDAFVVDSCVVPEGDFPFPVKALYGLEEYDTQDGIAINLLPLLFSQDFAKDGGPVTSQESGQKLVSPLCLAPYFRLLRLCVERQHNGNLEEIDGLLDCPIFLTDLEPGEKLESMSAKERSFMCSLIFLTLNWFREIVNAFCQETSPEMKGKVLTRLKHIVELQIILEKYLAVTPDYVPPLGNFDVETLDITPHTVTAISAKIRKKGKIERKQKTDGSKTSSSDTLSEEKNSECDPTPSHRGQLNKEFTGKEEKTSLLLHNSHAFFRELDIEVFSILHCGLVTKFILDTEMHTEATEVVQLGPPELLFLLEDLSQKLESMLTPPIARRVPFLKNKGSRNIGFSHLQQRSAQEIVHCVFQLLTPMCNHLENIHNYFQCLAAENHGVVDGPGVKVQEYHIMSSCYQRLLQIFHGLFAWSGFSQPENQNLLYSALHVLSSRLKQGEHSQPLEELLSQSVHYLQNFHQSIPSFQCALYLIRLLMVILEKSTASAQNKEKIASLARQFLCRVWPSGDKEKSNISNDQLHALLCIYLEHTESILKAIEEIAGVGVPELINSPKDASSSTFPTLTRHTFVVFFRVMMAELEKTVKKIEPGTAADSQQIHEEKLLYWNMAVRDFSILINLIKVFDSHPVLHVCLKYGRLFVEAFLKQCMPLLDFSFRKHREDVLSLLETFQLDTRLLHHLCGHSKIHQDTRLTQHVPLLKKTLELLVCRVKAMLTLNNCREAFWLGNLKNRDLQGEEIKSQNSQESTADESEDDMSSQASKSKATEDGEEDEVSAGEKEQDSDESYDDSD
UniProt P25490: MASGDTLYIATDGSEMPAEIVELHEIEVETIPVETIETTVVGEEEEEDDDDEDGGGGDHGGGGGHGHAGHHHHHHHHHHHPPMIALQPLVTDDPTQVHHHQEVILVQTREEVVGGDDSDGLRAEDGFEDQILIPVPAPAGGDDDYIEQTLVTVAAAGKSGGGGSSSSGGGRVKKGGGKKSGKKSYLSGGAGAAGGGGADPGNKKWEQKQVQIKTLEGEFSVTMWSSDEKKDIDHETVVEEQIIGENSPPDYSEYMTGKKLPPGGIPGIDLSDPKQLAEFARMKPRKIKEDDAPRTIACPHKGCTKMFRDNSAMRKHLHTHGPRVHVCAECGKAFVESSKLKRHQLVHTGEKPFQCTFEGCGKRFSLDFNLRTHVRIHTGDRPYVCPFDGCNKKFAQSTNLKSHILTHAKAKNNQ

The labels stand for the following.
T1: Flag-hRFWD3-C315A (RING domain mutated RFWD3) (human) (UniProt Q6PCD5)
T1 sequence: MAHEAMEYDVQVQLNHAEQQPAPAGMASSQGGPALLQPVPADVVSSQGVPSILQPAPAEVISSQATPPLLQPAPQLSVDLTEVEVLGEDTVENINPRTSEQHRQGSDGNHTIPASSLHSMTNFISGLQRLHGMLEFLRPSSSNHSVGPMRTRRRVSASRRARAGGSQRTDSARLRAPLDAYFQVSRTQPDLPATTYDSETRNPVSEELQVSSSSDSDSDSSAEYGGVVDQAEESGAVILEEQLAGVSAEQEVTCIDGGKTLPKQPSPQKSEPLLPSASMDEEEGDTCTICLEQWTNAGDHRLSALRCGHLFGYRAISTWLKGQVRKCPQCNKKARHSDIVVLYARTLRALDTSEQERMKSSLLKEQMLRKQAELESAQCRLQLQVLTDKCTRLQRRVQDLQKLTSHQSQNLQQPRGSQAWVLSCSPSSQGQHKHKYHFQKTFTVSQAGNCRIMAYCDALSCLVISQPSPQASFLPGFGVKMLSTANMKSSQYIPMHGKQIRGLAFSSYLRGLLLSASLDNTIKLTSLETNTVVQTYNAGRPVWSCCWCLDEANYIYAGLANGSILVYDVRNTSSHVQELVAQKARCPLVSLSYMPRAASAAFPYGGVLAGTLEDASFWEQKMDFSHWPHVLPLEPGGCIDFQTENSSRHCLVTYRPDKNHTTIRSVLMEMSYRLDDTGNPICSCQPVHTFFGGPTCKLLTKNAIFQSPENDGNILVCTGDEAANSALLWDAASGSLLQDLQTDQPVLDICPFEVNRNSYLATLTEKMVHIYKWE

B1: TONSL (protein, UniProt Q96HA7 1-1378)
chain: MSLERELRQLSKAKAKAQRAGQRREEAALCHQLGELLAGHGRYAEALEQHWQELQLRERADDPLGCAVAHRKIGERLAEMEDYPAALQHQHQYLELAHSLRNHTELQRAWATIGRTHLDIYDHCQSRDALLQAQAAFEKSLAIVDEELEGTLAQGELNEMRTRLYLNLGLTFESLQQTALCNDYFRKSIFLAEQNHLYEDLFRARYNLGTIHWRAGQHSQAMRCLEGARECAHTMRKRFMESECCVVIAQVLQDLGDFLAAKRALKKAYRLGSQKPVQRAAICQNLQHVLAVVRLQQQLEEAEGRDPQGAMVICEQLGDLFSKAGDFPRAAEAYQKQLRFAELLDRPGAERAIIHVSLATTLGDMKDHHGAVRHYEEELRLRSGNVLEEAKTWLNIALSREEAGDAYELLAPCFQKALSCAQQAQRPQLQRQVLQHLHTVQLRLQPQEAPETETRLRELSVAEDEDEEEEAEEAAATAESEALEAGEVELSEGEDDTDGLTPQLEEDEELQGHLGRRKGSKWNRRNDMGETLLHRACIEGQLRRVQDLVRQGHPLNPRDYCGWTPLHEACNYGHLEIVRFLLDHGAAVDDPGGQGCEGITPLHDALNCGHFEVAELLLERGASVTLRTRKGLSPLETLQQWVKLYRRDLDLETRQKARAMEMLLQAAASGQDPHSSQAFHTPSSLLFDPETSPPLSPCPEPPSNSTRLPEASQAHVRVSPGQAAPAMARPRRSRHGPASSSSSSEGEDSAGPARPSQKRPRCSATAQRVAAWTPGPASNREAATASTSRAAYQAAIRGVGSAQSRLGPGPPRGHSKALAPQAALIPEEECLAGDWLELDMPLTRSRRPRPRGTGDNRRPSSTSGSDSEESRPRARAKQVRLTCMQSCSAPVNAGPSSLASEPPGSPSTPRVSEPSGDSSAAGQPLGPAPPPPIRVRVQVQDHLFLIPVPHSSDTHSVAWLAEQAAQRYYQTCGLLPRLTLRKEGALLAPQDLIPDVLQSNDEVLAEVTSWDLPPLTDRYRRACQSLGQGEHQQVLQAVELQGLGLSFSACSLALDQAQLTPLLRALKLHTALRELRLAGNRLGDKCVAELVAALGTMPSLALLDLSSNHLGPEGLRQLAMGLPGQATLQSLEELDLSMNPLGDGCGQSLASLLHACPLLSTLRLQACGFGPSFFLSHQTALGSAFQDAEHLKTLSLSYNALGAPALARTLQSLPAGTLLHLELSSVAAGKGDSDLMEPVFRYLAKEGCALAHLTLSANHLGDKAVRDLCRCLSLCPSLISLDLSANPEISCASLEELLSTLQKRPQGLSFLGLSGCAVQGPLGLGLWDKIAAQLRELQLCSRRLCAEDRDALRQLQPSRPGPGECTLDHGSKLFFRRL
B2: GTF3C4 (protein, UniProt Q9UKN8 1-822)
chain: MNTADQARVGPADDGPAPSGEEEGEGGGEAGGKEPAADAAPGPSAAFRLMVTRREPAVKLQYAVSGLEPLAWSEDHRVSVSTARSIAVLELICDVHNPGQDLVIHRTSVPAPLNSCLLKVGSKTEVAECKEKFAASKDPTVSQTFMLDRVFNPEGKALPPMRGFKYTSWSPMGCDANGRCLLAALTMDNRLTIQANLNRLQWVQLVDLTEIYGERLYETSYRLSKNEAPEGNLGDFAEFQRRHSMQTPVRMEWSGICTTQQVKHNNECRDVGSVLLAVLFENGNIAVWQFQLPFVGKESISSCNTIESGITSPSVLFWWEYEHNNRKMSGLIVGSAFGPIKILPVNLKAVKGYFTLRQPVILWKEMDQLPVHSIKCVPLYHPYQKCSCSLVVAARGSYVFWCLLLISKAGLNVHNSHVTGLHSLPIVSMTADKQNGTVYTCSSDGKVRQLIPIFTDVALKFEHQLIKLSDVFGSVRTHGIAVSPCGAYLAIITTEGMINGLHPVNKNYQVQFVTLKTFEEAAAQLLESSVQNLFKQVDLIDLVRWKILKDKHIPQFLQEALEKKIESSGVTYFWRFKLFLLRILYQSMQKTPSEALWKPTHEDSKILLVDSPGMGNADDEQQEEGTSSKQVVKQGLQERSKEGDVEEPTDDSLPTTGDAGGREPMEEKLLEIQGKIEAVEMHLTREHMKRVLGEVYLHTWITENTSIPTRGLCNFLMSDEEYDDRTARVLIGHISKKMNKQTFPEHCSLCKEILPFTDRKQAVCSNGHIWLRCFLTYQSCQSLIYRRCLLHDSIARHPAPEDPDWIKRLLQSPCPFCDSPVF

These are yes or no findings as the source states them, for the method shown. Binding seen in cells or lysates may run through a third protein. A yes stands for co-enrichment or nearness to the bait. Other partners may have been found. Where a sequence is shown, tags or fusion partners need not be part of it.

The test concerns the target T1, Flag-hRFWD3-C315A (RING domain mutated RFWD3) (human). Kind of test: affinity purification with mass spectrometry; anti-FLAG M2 affinity gel IP of doxycycline-induced Flag-hRFWD3-C315A (bait) from RIPA lysates with benzonase, overnight at 4 °C; HAP1 parental (SLFN11-expressing) and SLFN11 KO cells, with or without 2 mM HU for 4 h; eluted with 3X DYKDDDDK peptide; LC-MS/MS, SAINT scoring.
Turning to DNAJC13 (from UniProt O75165 1-2243), the binding entry is listed as “binds”.

Take PIAS1 (from UniProt O75925 1-651): the binding entry is recorded as “binds”.

On to FANCD2 (from UniProt Q9BXW9 1-1451), for which the binding entry is reported as “binds”.

In the case of YY1 (from UniProt P25490 1-414), the binding entry is given as “binds”.

Consider B1, for which the binding result is “binds”.

On to B2, for which the binding result is “binds”.
